In PMC8837547:
Results are given in words; binding and its absence hold for the method and conditions named. Binding seen in cells or lysates may run through a third protein. Some results given as binding are weak or reduced against the parent protein; the word gives no strength.

By UniProt entry, the sequences of proteins in these tests, tags left out. Residues count along the entry.
UniProt Q5TEJ8: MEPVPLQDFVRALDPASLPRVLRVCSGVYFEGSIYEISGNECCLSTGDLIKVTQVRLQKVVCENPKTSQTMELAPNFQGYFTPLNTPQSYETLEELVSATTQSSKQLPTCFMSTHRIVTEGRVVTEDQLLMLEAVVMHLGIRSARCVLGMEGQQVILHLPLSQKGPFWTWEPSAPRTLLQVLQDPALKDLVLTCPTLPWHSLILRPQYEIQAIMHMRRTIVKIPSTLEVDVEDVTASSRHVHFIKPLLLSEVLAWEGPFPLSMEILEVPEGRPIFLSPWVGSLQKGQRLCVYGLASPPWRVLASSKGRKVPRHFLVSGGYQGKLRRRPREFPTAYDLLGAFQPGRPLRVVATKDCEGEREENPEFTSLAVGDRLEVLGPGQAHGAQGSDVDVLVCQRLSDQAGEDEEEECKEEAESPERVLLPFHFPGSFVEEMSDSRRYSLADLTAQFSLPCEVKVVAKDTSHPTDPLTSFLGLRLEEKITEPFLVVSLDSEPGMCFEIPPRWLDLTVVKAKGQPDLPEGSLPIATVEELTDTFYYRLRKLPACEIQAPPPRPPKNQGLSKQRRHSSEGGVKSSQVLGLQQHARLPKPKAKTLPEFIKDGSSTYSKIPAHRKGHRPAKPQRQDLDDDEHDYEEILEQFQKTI
UniProt P08581, residues 25-1390: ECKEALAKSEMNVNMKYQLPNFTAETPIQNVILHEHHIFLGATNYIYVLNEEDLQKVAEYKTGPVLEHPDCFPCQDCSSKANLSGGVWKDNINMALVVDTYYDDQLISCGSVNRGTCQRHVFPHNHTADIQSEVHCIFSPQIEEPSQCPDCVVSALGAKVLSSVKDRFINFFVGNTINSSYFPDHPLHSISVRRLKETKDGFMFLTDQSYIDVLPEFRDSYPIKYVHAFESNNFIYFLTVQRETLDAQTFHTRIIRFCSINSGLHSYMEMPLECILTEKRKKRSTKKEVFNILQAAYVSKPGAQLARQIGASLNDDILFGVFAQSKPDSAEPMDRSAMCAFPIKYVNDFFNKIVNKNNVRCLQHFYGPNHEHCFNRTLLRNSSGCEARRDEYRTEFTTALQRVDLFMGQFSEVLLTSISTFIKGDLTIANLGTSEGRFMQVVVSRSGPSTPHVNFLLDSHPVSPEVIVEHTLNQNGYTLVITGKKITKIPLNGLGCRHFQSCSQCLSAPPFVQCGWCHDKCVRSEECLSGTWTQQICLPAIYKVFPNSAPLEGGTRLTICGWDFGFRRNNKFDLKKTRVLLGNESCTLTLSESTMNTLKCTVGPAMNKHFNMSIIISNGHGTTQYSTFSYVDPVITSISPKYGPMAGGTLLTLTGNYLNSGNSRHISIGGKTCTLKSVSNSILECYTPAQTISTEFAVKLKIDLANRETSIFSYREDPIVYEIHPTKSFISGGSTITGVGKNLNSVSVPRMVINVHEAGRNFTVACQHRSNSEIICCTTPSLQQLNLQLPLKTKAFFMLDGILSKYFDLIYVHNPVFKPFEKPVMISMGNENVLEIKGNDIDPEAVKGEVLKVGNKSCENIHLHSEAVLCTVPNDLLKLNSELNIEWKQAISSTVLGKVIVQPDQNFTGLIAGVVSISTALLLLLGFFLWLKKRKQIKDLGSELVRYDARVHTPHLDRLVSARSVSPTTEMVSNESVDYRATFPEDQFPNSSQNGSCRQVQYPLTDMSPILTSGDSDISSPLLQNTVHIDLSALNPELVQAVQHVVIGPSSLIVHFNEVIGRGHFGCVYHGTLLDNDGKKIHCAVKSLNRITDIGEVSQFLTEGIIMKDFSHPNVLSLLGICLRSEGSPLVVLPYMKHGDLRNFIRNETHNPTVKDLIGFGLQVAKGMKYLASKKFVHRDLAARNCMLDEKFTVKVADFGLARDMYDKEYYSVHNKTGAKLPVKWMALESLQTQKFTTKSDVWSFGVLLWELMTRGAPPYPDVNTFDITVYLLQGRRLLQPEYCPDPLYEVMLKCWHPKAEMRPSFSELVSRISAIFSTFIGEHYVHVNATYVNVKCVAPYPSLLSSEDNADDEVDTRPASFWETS

Columns and labels:
[1] = target: Thymocyte expressed molecule involved in selection 2 (THEMIS2) (human (endogenous in MDA-MB-231-IV2, MDA-MB-231, Hs578T)) (UniProt Q5TEJ8); test: co-IP; reciprocal IP of endogenous THEMIS2 and MET from MDA-MB-231-IV2 cell lysates, IgG as negative control; also sphere cells against parental cells in three TNBC lines
[2] = target: T1, protein-tyrosine phosphatases 1B (PTP1B) (human (endogenous in MDA-MB-231, Hs578T and other TNBC lines)) (UniProt P18031); test: co-IP; IP with a PTP1B antibody or a p-MET antibody from TNBC cell lysates (MDA-MB-231, Hs578T, MDA-MB-468, BT549), IgG as negative control; cells with THEMIS2 overexpression or THEMIS2 siRNA, with or without HGF (30 ng) for 30 min
T1 sequence: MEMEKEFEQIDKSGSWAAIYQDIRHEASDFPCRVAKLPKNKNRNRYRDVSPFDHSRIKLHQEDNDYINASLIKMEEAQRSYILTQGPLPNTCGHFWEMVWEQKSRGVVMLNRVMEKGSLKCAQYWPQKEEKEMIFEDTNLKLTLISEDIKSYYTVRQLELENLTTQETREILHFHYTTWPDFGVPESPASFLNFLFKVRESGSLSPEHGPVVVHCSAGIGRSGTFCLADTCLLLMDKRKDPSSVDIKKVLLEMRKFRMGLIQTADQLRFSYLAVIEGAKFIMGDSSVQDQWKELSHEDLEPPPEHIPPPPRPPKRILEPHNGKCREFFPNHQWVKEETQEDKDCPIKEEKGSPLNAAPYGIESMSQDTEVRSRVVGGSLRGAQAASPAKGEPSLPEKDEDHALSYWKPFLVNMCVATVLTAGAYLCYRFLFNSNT

[3] = target: T1, protein-tyrosine phosphatases 1B (PTP1B) (human (endogenous in MDA-MB-231, Hs578T and other TNBC lines)); test: proximity ligation; Duolink PLA with p-MET or MET and PTP1B antibodies in Hs578T and MDA-MB-231 cells; THEMIS2 siRNA or overexpression, with or without 30 ng/mL HGF for 30 min; p-MET antibody alone as negative control
[4] = target: MET (human (endogenous in MDA-MB-231, Hs578T and other TNBC lines)) (UniProt P08581); test: co-IP; reciprocal IP of endogenous THEMIS2 and MET from MDA-MB-231-IV2 cell lysates, IgG as negative control; also sphere cells against parental cells in three TNBC lines
[5] = target: MET (human (endogenous in MDA-MB-231, Hs578T and other TNBC lines)) (UniProt P08581); test: proximity ligation; Duolink PLA with THEMIS2 and MET antibodies in MDA-MB-231 cells; also Hs578T sphere cells against parental cells

Substance | binding [1] | binding [2] | binding [3] | binding [4] | binding [5]
MET (from UniProt P08581 25-1390) (receptor) | binds | binds | binds | – | –
Thymocyte expressed molecule involved in selection 2 (THEMIS2) (from UniProt Q5TEJ8 1-643) | – | – | – | binds | binds
